PubChem BioAssay AID652054 (National Center for Advancing Translational Sciences (NCATS), 2013)
Hit rate of the full screen: of about 360,000 compounds, about 9,100 (2.5%) were called active. Inconclusive means that the source gave no clear call. Such entries were picked first, then a sample of the others. No stated cut-off is given here; in the data, active means max response below about -50%; inconclusive means no clear call, values can overlap the other calls; inactive means above that.

Chains of the proteins cited; added tags and fusions are not shown.
UniProt P35462, whole entry, looked up: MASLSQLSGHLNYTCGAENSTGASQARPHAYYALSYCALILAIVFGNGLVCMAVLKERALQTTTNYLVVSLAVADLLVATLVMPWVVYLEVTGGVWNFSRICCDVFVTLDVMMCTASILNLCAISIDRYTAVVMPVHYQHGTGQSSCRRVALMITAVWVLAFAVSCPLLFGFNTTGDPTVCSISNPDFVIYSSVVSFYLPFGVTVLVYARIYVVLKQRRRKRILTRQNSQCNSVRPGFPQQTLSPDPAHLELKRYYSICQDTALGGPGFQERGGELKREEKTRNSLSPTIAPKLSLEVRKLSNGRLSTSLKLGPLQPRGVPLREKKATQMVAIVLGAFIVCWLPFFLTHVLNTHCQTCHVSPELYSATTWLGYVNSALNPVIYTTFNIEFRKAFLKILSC

Target: D(3) dopamine receptor (Homo sapiens) (UniProt P35462)
Assay: qHTS of D3 Dopamine Receptor Antagonist: qHTS
Settings: D3R cells, DiscoveRx beta-arrestin luminescence, antagonist mode; active compounds read low
In short: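 Cells plated overnight at 1500 cells/well, then exposed to library compounds with dopamine controls for 90 minutes at 37 degrees C. DiscoveRx reagent added for 30–60 minutes at room temperature; luminescence read, quantitative HTS format.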
On the % scale 0 is the no-effect control and ±100 the full control effect.

| Compound | max response, negative = inhibition |
| --- | --- |
| O=C(NCc1ccccc1)c1ccc(S(=O)(=O)Nc2cccc(C(F)(F)F)c2)cc1 | inconclusive: -43.5% |
| CN(Cc1ccccc1)C(=O)COC(=O)c1cc2ccccc2oc1=O | inconclusive: -32.2% |
| CC(C)CC(C(=O)NC(=O)NCc1ccccc1)N1C(=O)c2ccccc2C1=O (stereo unspecified) | inactive: 0% |
| COCCN(C(=O)c1ccc(C)o1)c1c(N)n(CC(C)C)c(=O)[nH]c1=O | inconclusive: -32.8% |
| CN(/C=C/c1c([N+](=O)[O-])c(=O)n(C)c(=O)n1C)c1ccccc1 | inactive: 3.4% |
| Cc1ccc(C)c(/C(O)=C2\C(=O)C(=O)N(CCCn3ccnc3)C2c2cccnc2)c1 (stereo unspecified) | inconclusive: -38.9% |
| Cc1ccc(NS(=O)(=O)c2ccc(C(=O)N3CC(C)CC(C)C3)cc2)cc1 (stereo unspecified) | inactive: -3.05% |
| O=C(CSc1n[nH]c(-c2ccncc2)n1)c1cccc([N+](=O)[O-])c1 | active: -69.1% |
| O=C(COc1ccc(C(=O)c2ccc(F)cc2)cc1)NCc1ccc(F)cc1 | inactive: 12.3% |
| COc1ccc(NC(=O)CCN2CCCC(C)C2)cc1 (stereo unspecified) | active: -74.5% |
| CC(NC(=O)Nc1cccc(Cl)c1)C(c1cccs1)N1CCCC1 (stereo unspecified) | inconclusive: -37% |
| COc1ccccc1N(C)S(=O)(=O)c1ccc(C(=O)OCC(=O)N2CCC2)cc1 | inactive: 9.83% |
| COc1ccc(CC(C)N2CCN(c3ccccc3OC)CC2)cc1OC (stereo unspecified) | active: -92.8% |
| Cn1nc(CC(=O)Nc2ncc(Br)s2)c2ccccc2c1=O | inactive: 16% |
| CC(=O)Nc1cc(-c2cccc(C(=O)NCCN(C)C)c2)cn2c(-c3ccccc3)cnc12 | active: -51.6% |
| CCc1cc2c(CN3CCN(C)CC3)cc(=O)oc2cc1O | inconclusive: -30.8% |
| c1ccc(-c2nc(NCc3cccnc3)c3oc4ccccc4c3n2)cc1 | inconclusive: -39% |
| CCc1ccc(S(=O)(=O)NCc2cccs2)cc1 | active: -64.7% |
| CCS(=O)(=O)N1CCN(CC2CC3C=CC2C3)CC1 (stereo unspecified) | active: -71.9% |
| COc1ccc(-c2oc3ccccc3c(=O)c2OC(=O)c2ccc(C)cc2)cc1 | inactive: -9.65% |
| O=C(C[C@@H]1C/C=C/CC[C@H](Cc2ccc(F)cc2)C(=O)OC[C@@H](Cc2ccccc2)NC1=O)N[C@H](CO)Cc1ccccc1 | inactive: -27.8% |
| CC1(C(=O)O)CCCN1C(=O)c1ccccc1OC(F)(F)F (stereo unspecified) | inactive: -4.33% |
| Nc1ccc(C(=O)Nc2ccccc2C(=O)O)cc1 | inconclusive: -33.4% |

Compounds above that have a thiophene ring, fused or not, in the order listed:

| Compound | max response, negative = inhibition |
| --- | --- |
| CC(NC(=O)Nc1cccc(Cl)c1)C(c1cccs1)N1CCCC1 (stereo unspecified) | inconclusive: -37% |
| CCc1ccc(S(=O)(=O)NCc2cccs2)cc1 | active: -64.7% |

Later entries:

| Compound | max response, negative = inhibition |
| --- | --- |
| CC(=O)Nc1cc(C(=O)NCc2ccco2)ccc1Sc1ccc(C)cc1 | inconclusive: -31% |
| C=CC[n+]1c(-c2ccc(Cl)cc2Cl)csc1Nc1ccc(NC(C)=O)cc1 | inconclusive: -44% |
| O=C(NCc1cccnc1)/C(=C/c1ccc(-c2ccc(Cl)cc2)o1)S(=O)(=O)c1ccccc1 | inconclusive: -45.2% |
| N#Cc1ccc(-c2ccccc2)nc1SCC(=O)c1cccc(Cl)c1 | inactive: -10.2% |
| CCCCCc1c(-c2ccc(Cl)cc2)ncn1CCc1ccccc1OC | inconclusive: -39.5% |
| CN1CCC(NC(=O)Nc2cccc(C(F)(F)F)c2)CC1 | inconclusive: -35.7% |
| CC(C)(C)c1ccc(S(=O)(=O)NC(=O)C2(C)CCN2C(=O)CC2CCCCC2)cc1 (stereo unspecified) | inconclusive: -41.6% |
| O=C(CO/N=C/c1ccccc1O)NNC(=O)c1ccccc1Cl | active: -53.5% |
| O=C(N/N=C/c1ccccc1Cl)c1ccc(F)cc1 | inconclusive: -43% |
| Cc1ccc(CN2CCN(Cc3cccc(-n4cccn4)c3)CC2CCO)cc1 (stereo unspecified) | active: -52.9% |
| CC(C)COC(=O)C(C#N)c1nc2ccccc2nc1N1CCN(Cc2ccccc2)CC1 (stereo unspecified) | inconclusive: -39.6% |
| Cc1ccc(NC(=O)COc2ccccc2C#N)cc1S(=O)(=O)N1CCCCCC1 | inactive: 33.8% |
| COc1cccc(-c2cc(=O)c3cc(NC(C)=O)ccc3[nH]2)c1 | inactive: -25.1% |
| CCCn1cnnc1CNC(=O)[C@H]1O[C@@H](n2cnc3c(N)ncnc32)[C@H](O)[C@@H]1O | inactive: 0% |
| CCOc1ccc(-n2c(N)c(C(=O)NCc3ccco3)sc2=S)cc1 | inconclusive: -45.3% |
| COc1ccc(CCC(C)N2CCC(Oc3ccc(C(=O)N4CCCC4)cc3)CC2)cc1 (stereo unspecified) | inactive: -20.4% |
| Cn1sc(=O)c2cc(S(=O)(=O)NC3CC3)ccc21 | inconclusive: -42.9% |
| CCOCCN1CCN(C2c3ccccc3CSc3ccccc32)CC1 (stereo unspecified) | active: -76.2% |
| COc1ccc(OCC(=O)N2CCC(Cc3ccccc3)CC2)cc1 | inactive: 9.7% |
| Cc1noc(C)c1COc1ccc(C(=O)OCC(=O)Nc2ccc3c(c2)OCO3)cc1 | inconclusive: -35.5% |
| O=C(Cn1cnc2ccccc21)N1CCN(S(=O)(=O)c2ccccc2)CC1 | inactive: 0% |
| CCOC(=O)C1CCN(C(=O)c2ccc3c(=O)n4nc(Nc5ccccc5CC)sc4nc3c2)CC1 | inconclusive: -42.5% |
| O=C(Nc1ccc(F)cc1F)N1CCN(C/C=C/c2ccccc2)CC1 | inconclusive: -45.1% |

| Compound | max response, negative = inhibition |
| --- | --- |
| CC1CC(NC(=O)c2c(O)nc3ccccn3c2=O)CC(C)(C)C1 (stereo unspecified) | inactive: -18.9% |
| COc1ccc(Cc2noc(CN(C)Cc3cccc(-n4cccn4)c3)n2)cc1OC | inactive: 11.1% |
| COc1cc(C(C)=O)ccc1OCC(O)CN1CCN(c2ccc(C)c(C)c2)CC1 (stereo unspecified) | active: -52.2% |
| Cc1cc(C)cc(NS(=O)(=O)c2cnc(Cl)c(Cl)c2)c1 | inconclusive: -44.8% |
| COc1ccccc1-c1noc2ncnc(Nc3ccccc3C)c12 | inconclusive: -31.2% |
| O=C(CSc1nnc(Nc2ccccc2F)s1)NCc1ccco1 | active: -58.9% |
| CCCNC(=O)N1c2ccccc2Sc2ccccc21 | inactive: 1.83% |
| C=CCN1C=CC(=O)CC1 | inconclusive: -39.6% |
| O=C(O)c1cc(S(=O)(=O)Nc2ccc3c(c2)OCCO3)c(Cl)cc1Cl | inconclusive: -49.5% |
| CC1CCC(NC(=O)CCC(=O)N2CC(C)Oc3ccccc32)CC1 (stereo unspecified) | active: -91.7% |
| O=C(CCCCC(=O)Nc1ccccc1Cl)Nc1ccccc1Cl | inactive: -6.5% |
| CCOC(=O)N1CCN(c2c(NC3CCN(Cc4ccccc4)CC3)c(=O)c2=O)CC1 | active: -51.1% |
| CCN(c1cccc(C)c1)S(=O)(=O)c1cccc2nsnc12 | inconclusive: -46.3% |
| Cc1ccc(/C=C/C(=O)NC(=S)Nc2ccccc2C(=O)NC2CCCCC2)cc1 | inactive: -13.9% |
| Cn1c(CSc2ccccc2)c(C#N)c2ccccc21 | inconclusive: -31.3% |
| COc1ccc(OC)c(NC(=O)N2CCCC(CNS(=O)(=O)c3cccs3)C2)c1 (stereo unspecified) | inactive: -3.29% |
| O=C(CN1CCC(n2nnc3cc(F)ccc32)CC1)NC1CCCCC1 | active: -85.5% |
| O=c1c2c3nc4ccccc4nc3n(/N=C/c3ccccn3)c2ncn1-c1ccccc1 | inconclusive: -30.3% |
| O=C(c1cccc(F)c1)N1CCN(c2cccc(Cl)c2)CC1 | inactive: 4.7% |
| CC(=O)N(c1ccc(Cl)cc1)c1c[nH]c2ccccc12 | active: -66.8% |
| CCCc1cc(=O)oc2c(CN3CCN(C)CC3)c(O)ccc12 | inactive: 5.04% |
| CCOc1cccc(-c2nnc3sc(-c4cccs4)nn23)c1 | inactive: 6.89% |
| COc1cccc(CC(NC(C)=O)C(=O)NC2CCN(S(=O)(=O)c3ccc(F)cc3)CC2)c1OC (stereo unspecified) | inactive: 5.8% |

| Compound | max response, negative = inhibition |
| --- | --- |
| Cc1ccc(OCCN2CCCCCC2)c(C)c1 | inconclusive: -49.5% |
| O=C(NCN1CCN(CCO)CC1)c1cnccn1 | inconclusive: -46.9% |
| S=c1[nH]nc(-c2ccccc2)n1/N=C/c1c[nH]c2ccccc12 | inconclusive: -44.3% |
| O=C(Nc1ccc([N+](=O)[O-])cc1)c1ccccc1F | inconclusive: -36.1% |
| N#CC1=C(N)C(C#N)(C#N)C(c2cccnc2)C2CN(C(=O)OCc3ccccc3)CC=C12 (stereo unspecified) | active: -74.3% |
| Cc1ccc(-c2nc(N)sc2CC(=O)OCC(=O)NCCC(C)C)cc1 | inactive: -16.4% |
| CCN1C(=O)S/C(=C\c2ccc(N3CCOCC3)cc2C)C1=O | inactive: 8.3% |
| O=C(CNCC1CCCO1)Nc1ccccc1N1CCCCCC1 (stereo unspecified) | active: -62.2% |
| CCN(CC(=O)NCc1cccs1)C(=O)/C=C/c1cc(Br)ccc1OC(F)F | inconclusive: -40.2% |
| CCn1c(-c2cc(-c3cccc(OC)c3)nc3ccccc23)n[nH]c1=S | inconclusive: -45.7% |
| O=C(CN1C(=O)S/C(=C\C=C\c2ccccc2)C1=O)NC1CCS(=O)(=O)C1 (stereo unspecified) | inconclusive: -31.3% |
| CCN(CC)CCCNc1ncnc2scc(-c3ccc(F)cc3)c12 | inconclusive: -47.3% |
| O=C(NC(=S)Nc1ccccc1Cl)C1CC1 | inconclusive: -35.3% |
| CC(C)CC(=O)N1CCN(Cc2ccc(Cl)cc2)CC1 | inactive: 16.2% |
| O=C1c2cccc3cccc(c23)C(=O)N1CCCCCc1n[nH]c(=S)o1 | inconclusive: -33.5% |
| Cc1ccc(-c2nc(N3CCN(C)CC3)c3ccccc3n2)cc1 | inactive: -6.64% |
| COc1ccc2ccccc2c1/C=N/NC(=O)c1cccc(Br)c1 | inactive: -7.22% |
| CC1CCC2(CC1)NC(=O)N(Cc1cccc(C(F)(F)F)c1)C2=O (stereo unspecified) | inconclusive: -35.8% |
| CCn1c(SCC(=O)N2CCCc3ccccc32)nnc1-c1cccs1 | active: -68% |
| CCCOC(=O)c1[nH]c2c(c1C)C(=O)CC(c1cccs1)C2 (stereo unspecified) | inconclusive: -31.3% |
| COc1ccc(C(CNC(=O)Cc2c(F)cccc2Cl)N2CCCCC2)cc1 (stereo unspecified) | active: -111% |
| O=C(NC1CCCC1)c1cccc2c1C(=O)c1ccc(/C=C/c3ccccc3)cc1S2(=O)=O | inactive: 21.7% |

Single values from the results shown:
Under max response, negative = inhibition, `Cc1ccc(-c2nc(N3CCN(C)CC3)c3ccccc3n2)cc1` reads inactive: -6.64%
Under max response, negative = inhibition, `COc1ccc(C(CNC(=O)Cc2c(F)cccc2Cl)N2CCCCC2)cc1` (stereo unspecified) reads active: -111%
Under max response, negative = inhibition, `CCN(CC)CCCNc1ncnc2scc(-c3ccc(F)cc3)c12` reads inconclusive: -47.3%
